Source: paper doi:10.1101/2020.09.14.296178
Results are given in words; binding and its absence hold for the method and conditions named. Binding seen in cells or lysates may run through a third protein. Some binding calls cover weakened binding; strength is not graded here. Sequences can lack the tags named with a protein.

Amino acid sequences for entries named in this document (tags omitted).
UniProt P35580: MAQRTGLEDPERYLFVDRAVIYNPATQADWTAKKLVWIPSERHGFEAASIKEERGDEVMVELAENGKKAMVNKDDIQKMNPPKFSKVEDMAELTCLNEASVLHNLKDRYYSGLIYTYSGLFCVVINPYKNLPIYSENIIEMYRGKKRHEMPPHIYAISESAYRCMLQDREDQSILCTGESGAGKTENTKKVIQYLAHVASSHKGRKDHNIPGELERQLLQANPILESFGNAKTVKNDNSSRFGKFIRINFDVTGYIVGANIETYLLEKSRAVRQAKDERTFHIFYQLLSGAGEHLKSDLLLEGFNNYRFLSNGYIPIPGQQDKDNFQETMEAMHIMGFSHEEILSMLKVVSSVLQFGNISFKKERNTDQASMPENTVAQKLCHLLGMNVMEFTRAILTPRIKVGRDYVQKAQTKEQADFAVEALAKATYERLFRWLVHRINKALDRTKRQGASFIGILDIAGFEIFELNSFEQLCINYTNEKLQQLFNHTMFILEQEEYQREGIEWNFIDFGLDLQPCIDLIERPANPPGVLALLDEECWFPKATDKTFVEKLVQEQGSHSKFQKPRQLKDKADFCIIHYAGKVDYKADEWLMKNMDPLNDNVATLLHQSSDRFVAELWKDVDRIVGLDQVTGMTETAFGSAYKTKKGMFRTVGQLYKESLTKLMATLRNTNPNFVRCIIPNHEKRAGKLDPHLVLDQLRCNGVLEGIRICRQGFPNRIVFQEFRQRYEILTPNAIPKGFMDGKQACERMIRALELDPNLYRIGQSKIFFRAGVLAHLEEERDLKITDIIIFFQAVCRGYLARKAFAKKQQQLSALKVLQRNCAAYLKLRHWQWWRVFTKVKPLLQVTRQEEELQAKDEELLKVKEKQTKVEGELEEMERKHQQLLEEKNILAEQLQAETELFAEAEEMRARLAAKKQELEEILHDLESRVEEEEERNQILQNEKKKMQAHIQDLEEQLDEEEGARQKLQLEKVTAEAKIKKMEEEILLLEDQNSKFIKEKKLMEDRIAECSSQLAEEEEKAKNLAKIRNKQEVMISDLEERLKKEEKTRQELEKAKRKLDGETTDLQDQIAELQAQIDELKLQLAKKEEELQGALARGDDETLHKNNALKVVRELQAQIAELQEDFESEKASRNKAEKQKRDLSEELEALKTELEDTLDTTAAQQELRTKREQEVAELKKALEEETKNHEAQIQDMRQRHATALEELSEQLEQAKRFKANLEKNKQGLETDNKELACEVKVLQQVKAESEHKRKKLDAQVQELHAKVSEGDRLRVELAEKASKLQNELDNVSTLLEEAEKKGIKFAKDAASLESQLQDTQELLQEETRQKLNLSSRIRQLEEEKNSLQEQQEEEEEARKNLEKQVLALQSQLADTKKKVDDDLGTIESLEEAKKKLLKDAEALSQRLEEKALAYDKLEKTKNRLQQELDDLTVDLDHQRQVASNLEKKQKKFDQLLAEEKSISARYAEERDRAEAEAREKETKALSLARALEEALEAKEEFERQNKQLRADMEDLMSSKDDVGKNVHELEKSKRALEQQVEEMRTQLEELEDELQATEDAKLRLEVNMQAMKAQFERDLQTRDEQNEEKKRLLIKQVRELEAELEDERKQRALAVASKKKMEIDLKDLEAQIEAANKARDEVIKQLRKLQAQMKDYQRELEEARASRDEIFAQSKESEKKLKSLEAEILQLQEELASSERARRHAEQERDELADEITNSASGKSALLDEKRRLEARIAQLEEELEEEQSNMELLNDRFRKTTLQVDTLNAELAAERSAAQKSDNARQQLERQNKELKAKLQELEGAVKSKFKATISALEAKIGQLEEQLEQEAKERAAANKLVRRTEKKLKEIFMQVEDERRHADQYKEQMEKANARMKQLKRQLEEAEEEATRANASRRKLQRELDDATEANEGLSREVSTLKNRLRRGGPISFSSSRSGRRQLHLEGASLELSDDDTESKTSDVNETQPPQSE
UniProt P35579: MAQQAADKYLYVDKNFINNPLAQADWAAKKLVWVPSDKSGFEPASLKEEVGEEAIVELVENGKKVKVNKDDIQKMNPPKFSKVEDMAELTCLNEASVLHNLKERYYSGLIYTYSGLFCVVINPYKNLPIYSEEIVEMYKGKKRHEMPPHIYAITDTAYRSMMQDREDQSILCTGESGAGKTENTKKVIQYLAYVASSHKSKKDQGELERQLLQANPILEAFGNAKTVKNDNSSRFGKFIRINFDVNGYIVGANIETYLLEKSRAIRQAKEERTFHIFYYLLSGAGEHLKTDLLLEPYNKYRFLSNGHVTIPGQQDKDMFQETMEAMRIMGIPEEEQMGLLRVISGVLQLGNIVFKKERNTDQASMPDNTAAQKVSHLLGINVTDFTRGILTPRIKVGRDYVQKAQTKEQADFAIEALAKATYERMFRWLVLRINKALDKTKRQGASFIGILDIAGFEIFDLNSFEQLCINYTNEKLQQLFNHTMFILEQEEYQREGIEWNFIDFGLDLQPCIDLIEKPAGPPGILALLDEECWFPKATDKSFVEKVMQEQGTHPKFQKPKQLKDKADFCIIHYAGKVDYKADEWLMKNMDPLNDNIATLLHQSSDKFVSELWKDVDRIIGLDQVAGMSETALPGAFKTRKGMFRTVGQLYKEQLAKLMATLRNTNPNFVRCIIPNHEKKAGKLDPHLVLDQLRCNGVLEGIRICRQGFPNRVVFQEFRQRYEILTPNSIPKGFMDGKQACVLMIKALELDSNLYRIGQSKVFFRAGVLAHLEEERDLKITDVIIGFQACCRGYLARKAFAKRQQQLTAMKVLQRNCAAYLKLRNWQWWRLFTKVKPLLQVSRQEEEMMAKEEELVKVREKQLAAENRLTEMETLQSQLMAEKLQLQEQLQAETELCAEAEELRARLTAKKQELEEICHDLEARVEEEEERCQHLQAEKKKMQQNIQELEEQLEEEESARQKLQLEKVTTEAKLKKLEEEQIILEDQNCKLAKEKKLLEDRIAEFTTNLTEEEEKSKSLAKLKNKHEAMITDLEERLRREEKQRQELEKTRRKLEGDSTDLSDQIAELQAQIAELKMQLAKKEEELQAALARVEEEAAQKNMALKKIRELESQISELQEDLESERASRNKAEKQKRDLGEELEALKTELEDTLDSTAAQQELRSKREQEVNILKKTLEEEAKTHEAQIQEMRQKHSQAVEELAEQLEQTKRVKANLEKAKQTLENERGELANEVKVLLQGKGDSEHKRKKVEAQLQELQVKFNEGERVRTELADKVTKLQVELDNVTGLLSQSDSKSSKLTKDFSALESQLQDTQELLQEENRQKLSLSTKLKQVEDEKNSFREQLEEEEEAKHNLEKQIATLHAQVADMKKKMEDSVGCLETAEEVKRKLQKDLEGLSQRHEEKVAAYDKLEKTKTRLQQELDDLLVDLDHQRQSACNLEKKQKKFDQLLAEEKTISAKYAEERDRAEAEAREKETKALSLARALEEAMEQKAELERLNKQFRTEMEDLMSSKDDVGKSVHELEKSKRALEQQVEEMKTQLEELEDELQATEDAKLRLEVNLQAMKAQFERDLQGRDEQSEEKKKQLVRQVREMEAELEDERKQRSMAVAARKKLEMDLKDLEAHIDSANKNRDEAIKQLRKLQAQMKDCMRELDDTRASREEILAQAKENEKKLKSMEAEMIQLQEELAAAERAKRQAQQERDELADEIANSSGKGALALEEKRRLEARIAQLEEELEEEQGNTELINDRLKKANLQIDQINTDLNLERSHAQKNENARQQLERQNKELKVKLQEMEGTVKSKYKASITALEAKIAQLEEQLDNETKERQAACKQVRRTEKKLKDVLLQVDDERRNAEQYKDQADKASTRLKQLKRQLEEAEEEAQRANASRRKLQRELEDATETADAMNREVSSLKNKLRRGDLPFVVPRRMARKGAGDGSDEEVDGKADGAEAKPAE

Molecular target: T1, EGFP-tagged wild-type PKP2 (UniProt Q99959)
T1 sequence: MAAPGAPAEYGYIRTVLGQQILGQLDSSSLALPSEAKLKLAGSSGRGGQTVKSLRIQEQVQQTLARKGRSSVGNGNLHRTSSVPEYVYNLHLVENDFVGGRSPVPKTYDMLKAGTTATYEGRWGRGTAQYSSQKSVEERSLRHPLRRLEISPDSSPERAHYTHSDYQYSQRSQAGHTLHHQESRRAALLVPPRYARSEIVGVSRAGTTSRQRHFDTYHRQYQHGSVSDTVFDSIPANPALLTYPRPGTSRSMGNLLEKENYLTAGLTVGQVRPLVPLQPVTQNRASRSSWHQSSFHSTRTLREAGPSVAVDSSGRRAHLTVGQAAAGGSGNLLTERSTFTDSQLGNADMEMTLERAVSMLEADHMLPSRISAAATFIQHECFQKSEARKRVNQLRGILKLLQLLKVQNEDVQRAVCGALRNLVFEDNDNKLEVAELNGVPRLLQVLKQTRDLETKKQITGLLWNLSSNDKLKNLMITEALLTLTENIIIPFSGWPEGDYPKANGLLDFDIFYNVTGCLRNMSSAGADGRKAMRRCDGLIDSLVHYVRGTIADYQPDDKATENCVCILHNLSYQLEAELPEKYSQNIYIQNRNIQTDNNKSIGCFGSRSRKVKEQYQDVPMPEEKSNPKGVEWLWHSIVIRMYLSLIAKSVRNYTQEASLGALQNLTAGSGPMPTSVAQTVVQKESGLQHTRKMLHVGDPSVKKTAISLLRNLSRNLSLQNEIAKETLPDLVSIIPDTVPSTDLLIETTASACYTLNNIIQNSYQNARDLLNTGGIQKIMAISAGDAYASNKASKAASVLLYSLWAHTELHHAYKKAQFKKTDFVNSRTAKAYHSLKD
Assay: co-IP

| Substance | binding |
| --- | --- |
| myosin 10 (Myh10), non-muscle myosin heavy chain II-B (from UniProt P35580 1-1976) | binds |
| myosin 9 (Myh9), non-muscle myosin heavy chain II-A (from UniProt P35579 1-1960) | binds |
